Screening data, single-dose tests

Amino acid sequences for entries named in this document (tags omitted). Residues count along the entry.
UniProt Q8IDJ8, 1-583: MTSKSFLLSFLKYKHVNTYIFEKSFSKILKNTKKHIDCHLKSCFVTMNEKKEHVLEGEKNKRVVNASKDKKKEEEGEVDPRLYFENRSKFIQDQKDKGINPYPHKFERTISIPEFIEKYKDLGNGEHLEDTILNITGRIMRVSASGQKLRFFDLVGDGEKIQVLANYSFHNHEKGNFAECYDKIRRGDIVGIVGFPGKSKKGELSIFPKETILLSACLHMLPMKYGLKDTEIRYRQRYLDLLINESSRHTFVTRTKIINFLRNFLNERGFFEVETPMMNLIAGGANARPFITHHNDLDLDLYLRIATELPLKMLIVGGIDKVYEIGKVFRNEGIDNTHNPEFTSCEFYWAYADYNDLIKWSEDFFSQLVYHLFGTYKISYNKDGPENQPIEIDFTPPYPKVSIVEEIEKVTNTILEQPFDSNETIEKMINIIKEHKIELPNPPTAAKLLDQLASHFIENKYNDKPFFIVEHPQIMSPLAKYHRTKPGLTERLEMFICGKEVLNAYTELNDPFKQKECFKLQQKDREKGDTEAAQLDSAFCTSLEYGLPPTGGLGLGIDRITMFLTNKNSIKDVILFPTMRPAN
UniProt P9WFT3, whole entry: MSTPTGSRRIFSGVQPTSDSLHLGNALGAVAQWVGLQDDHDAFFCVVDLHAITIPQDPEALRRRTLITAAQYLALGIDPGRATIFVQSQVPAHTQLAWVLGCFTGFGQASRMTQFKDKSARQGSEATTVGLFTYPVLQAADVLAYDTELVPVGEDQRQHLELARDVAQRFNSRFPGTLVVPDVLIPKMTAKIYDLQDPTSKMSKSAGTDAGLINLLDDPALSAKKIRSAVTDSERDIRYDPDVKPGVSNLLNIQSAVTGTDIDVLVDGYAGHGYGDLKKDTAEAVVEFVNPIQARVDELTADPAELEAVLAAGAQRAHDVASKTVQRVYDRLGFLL
UniProt P9WPC5, whole entry: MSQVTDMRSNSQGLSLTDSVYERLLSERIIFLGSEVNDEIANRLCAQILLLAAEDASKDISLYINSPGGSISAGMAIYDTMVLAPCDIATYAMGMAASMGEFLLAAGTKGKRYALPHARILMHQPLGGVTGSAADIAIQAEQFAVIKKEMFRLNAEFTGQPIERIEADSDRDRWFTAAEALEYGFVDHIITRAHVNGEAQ
UniProt P9WPC3, whole entry partner: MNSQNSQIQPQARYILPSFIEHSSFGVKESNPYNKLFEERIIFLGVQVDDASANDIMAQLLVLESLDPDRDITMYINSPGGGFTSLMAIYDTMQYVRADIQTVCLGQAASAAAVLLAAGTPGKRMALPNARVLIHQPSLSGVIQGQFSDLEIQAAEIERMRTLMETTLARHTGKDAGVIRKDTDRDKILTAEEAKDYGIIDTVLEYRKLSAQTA

Source: ChEMBL document CHEMBL3988442, “University of Dundee, Small-Polar-MMV Screening Library” (2021).

The filed quantity is “Percent Effect” (%).
The controls that fix the scale are not given in the record; negative values are as filed.
The compounds are a random part of those screened.

PfKRS1: 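Enzyme assay of the cytosolic lysyl-tRNA synthetase in 384-well plates, read by luminescence. Target: Lysine-tRNA ligase, Plasmodium falciparum 3D7 (UniProt Q8IDJ8). Tested at 30 µM. Direction is inferred from only a few compounds that gave an IC50; most scored high, so higher reads as stronger inhibition. About 69,000 compounds were tested under these conditions; 0.071% (about 49) showed 50% or more at least once.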
MtTrpRS: 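Tryptophan-tRNA ligase, Mycobacterium tuberculosis (UniProt P9WFT3). Enzyme assay of tryptophanyl-tRNA synthetase; the read-out is not stated. Tested at 10 µM. Higher most likely means stronger inhibition; the record gives no direction and few retests gave an IC50. Of about 65,000 compounds tested this way, about 64 (0.098%) reached 50% or more in at least one test.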
ClpP1P2: 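Protease assay of ClpP1P2, read by the AMC dye that it sets free. Target: ClpP1P2, Mycobacterium tuberculosis (UniProt P9WPC5 and UniProt P9WPC3). Compounds at 50 µM. Direction is inferred from only a few compounds that gave an IC50; most scored high, so higher reads as stronger inhibition. Most other retested compounds had strongly negative values. Size under these conditions: about 69,000 compounds, about 10 of them at 50% or above in at least one test.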

{"compound": "CC(CN1CCOCC1)n1cncc1-c1cnn(Cc2ccccc2)c1", "stereo": "stereo not drawn", "PfKRS1": 3.471, "MtTrpRS": 2.807, "ClpP1P2": -20.39}
{"compound": "OC1(CNc2cc(C(F)(F)F)nc3ccccc23)CCOCC1", "PfKRS1": -2.665, "MtTrpRS": -1.49, "ClpP1P2": -4.354}
{"compound": "Cn1cc(CCCNS(=O)(=O)N2CCCC2c2ccco2)cn1", "stereo": "stereo not drawn", "PfKRS1": 7.008, "MtTrpRS": -5.068, "ClpP1P2": -19.27}
{"compound": "O=C(C1CCC1)N1CCN(Cc2cccnc2)[C@H]2CS(=O)(=O)C[C@H]21", "PfKRS1": 5.167, "MtTrpRS": 3.936, "ClpP1P2": 0.04879}
{"compound": "Cn1cc(-c2csc(N3CCSCC3)n2)cn1", "PfKRS1": 0.7882, "MtTrpRS": -0.277, "ClpP1P2": 1.923}
{"compound": "Cc1nc2c(C#N)cnn2c(C)c1CCC(=O)N(C)C(C)C(C)C", "stereo": "stereo not drawn", "PfKRS1": 6.621, "MtTrpRS": 9.272, "ClpP1P2": -4.928}
{"compound": "Cc1cc(CN2CCOC(CNc3cccnn3)C2)on1", "stereo": "stereo not drawn", "PfKRS1": -0.01406, "MtTrpRS": 2.985, "ClpP1P2": -25.66}
{"compound": "COc1ccc2c(c1)OCC(Cc1cncc(N)c1)C2", "stereo": "stereo not drawn", "PfKRS1": -1.679, "MtTrpRS": 8.218, "ClpP1P2": -5.668}
{"compound": "OCCCN1CCc2onc(C(c3ccccc3)c3ccccc3)c2C1", "PfKRS1": 3.131, "MtTrpRS": 11.27, "ClpP1P2": -8.537}
{"compound": "COc1ccc(N(c2ccc(C)cc2)c2ccc(C(=O)O)s2)cc1", "PfKRS1": 3.998, "ClpP1P2": -3.846}
{"compound": "Cc1ocnc1C(=O)N(Cc1cccnc1)C[C@@H]1CCC(=O)N1", "PfKRS1": -0.9691, "MtTrpRS": -2.477, "ClpP1P2": -1.398}
{"compound": "CC(C)(C)NC(=O)COc1ccc(Oc2ccccn2)cc1", "PfKRS1": 4.613, "MtTrpRS": -4.62, "ClpP1P2": 6.001}
{"compound": "Cc1nn(C)c(N(C)C)c1CNCc1ccccc1Cn1cncn1", "PfKRS1": 4.428, "MtTrpRS": 1.657, "ClpP1P2": 0.8502}
{"compound": "N#Cc1ccc(N2CCCC(CO)(CCOc3ccccc3)C2)nc1", "stereo": "stereo not drawn", "PfKRS1": 3.42, "MtTrpRS": 1.957, "ClpP1P2": -7.204}
{"compound": "F[C@@H]1CN(CC2CC2)C[C@@H]1OCc1nc2ccc(C(F)(F)F)cc2[nH]1", "PfKRS1": 3.765, "MtTrpRS": -4.5, "ClpP1P2": -15.26}
{"compound": "COc1cc(CNC(=O)c2c(C)noc2C(C)C)ccn1", "PfKRS1": 4.023, "MtTrpRS": 0.5596, "ClpP1P2": 15.09}
{"compound": "CC(C)(C)OC(=O)N1CCCc2ccc(NCc3ncc[nH]3)cc21", "PfKRS1": -7.814, "MtTrpRS": -2.071, "ClpP1P2": -22.14}
{"compound": "CCN1CCN(S(=O)(=O)c2c[nH]c(C(C)C)n2)c2ccccc21", "PfKRS1": 4.669, "MtTrpRS": -0.8227, "ClpP1P2": -2.502}
{"compound": "CSC1=Nc2c(cnn2-c2ccc(Cl)cc2)C2=NCCCN12", "PfKRS1": 1.727, "MtTrpRS": -0.2593, "ClpP1P2": -11.55}
{"compound": "CN(Cc1ccsc1)C(=O)c1cc2c([nH]c1=O)CCCC2=O", "PfKRS1": 5.282, "MtTrpRS": -4.568, "ClpP1P2": 8.271}
{"compound": "COCCC1(CO)CCCN(C(=O)c2cc(Cl)ccc2F)C1", "stereo": "stereo not drawn", "PfKRS1": 8.332, "MtTrpRS": 1.135, "ClpP1P2": -8.062}
{"compound": "COCCN(Cc1ccccc1)Cc1csc(-c2ncccn2)n1", "PfKRS1": 0.6128, "MtTrpRS": -2.767, "ClpP1P2": -1.571}
{"compound": "O=C(CSc1ccncc1)NC1CC(=O)N(CCc2ccccc2)C1", "stereo": "stereo not drawn", "PfKRS1": 0.4802, "MtTrpRS": 3.834, "ClpP1P2": -9.659}
{"compound": "CCOc1ccccc1OC1CCN(C(=O)c2c[nH]nn2)CC1", "PfKRS1": 0.5536, "MtTrpRS": -6.671, "ClpP1P2": 1.587}

Some entries from above, unchanged:

compound	PfKRS1	MtTrpRS	ClpP1P2
CCN1CCN(S(=O)(=O)c2c[nH]c(C(C)C)n2)c2ccccc21	4.669	-0.8227	-2.502
Cn1cc(CCCNS(=O)(=O)N2CCCC2c2ccco2)cn1 (stereo not drawn)	7.008	-5.068	-19.27